Results deposited as PubChem BioAssay AID1159584 (Peter MacCallum Cancer Centre, 2016).
Purpose: 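Genes that CDH1-null MCF10A cells selectively depend on to survive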 (primary screen). Cells: human MCF10A breast epithelial cells, parental and CDH1-null. Knock-down reagent: siRNA against human genes. Measurement: 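ATP luminescence (CellTiter-Glo) viability per line relative to mean mock wells over all plates, and the ratio of CDH1-null to parental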. Reading the numbers: CDH1-null / parental viability ratio: higher = CDH1-null cells survive relatively better than parental; CDH1-null viability vs mock: higher = more viable CDH1-null cells; parental viability vs mock: higher = more viable parental cells.
Shown is a random part of about 18,000 deposited reagents. Not given: the amount of reagent, the time to read-out.

CDH1-null / parental viability ratio | CDH1-null viability vs mock (fraction of mock) | parental viability vs mock (fraction of mock) | Target gene
0.94 | 0.58 | 0.62 | NUTF2 (nuclear transport factor 2)
0.99 | 0.79 | 0.8 | AATF (apoptosis antagonizing transcription factor)
1.04 | 1.05 | 1.01 | EIF2AK4 (eukaryotic translation initiation factor 2 alpha kinase 4)
1.04 | 0.54 | 0.52 | TMEM132E (transmembrane protein 132E)
0.95 | 0.78 | 0.82 | FCGRT (Fc gamma receptor and transporter)
1.05 | 0.98 | 0.93 | FAM178B (family with sequence similarity 178 member B)
1.27 | 1.02 | 0.8 | KCNJ11 (potassium inwardly rectifying channel subfamily J member 11)
1.18 | 0.59 | 0.5 | PRR23E (PRR23 family member E)
0.92 | 0.55 | 0.6 | IDH3A (isocitrate dehydrogenase (NAD(+)) 3 catalytic subunit alpha)
0.99 | 0.77 | 0.78 | KITLG (KIT ligand)
0.95 | 0.89 | 0.94 | BKGD (beta-keto-L-gulonate decarboxylase)
0.96 | 0.91 | 0.95 | MLX (MAX dimerization protein MLX)
0.77 | 0.33 | 0.43 | SELENOV (selenoprotein V)
0.77 | 0.6 | 0.78 | DYNLRB2 (dynein light chain roadblock-type 2)
0.85 | 0.84 | 0.99 | UFSP2 (UFM1 specific peptidase 2)
0.95 | 0.76 | 0.8 | RASGRP4 (RAS guanyl releasing protein 4)
1.1 | 0.91 | 0.83 | FER1L6 (fer-1 like family member 6)
1.19 | 0.7 | 0.59 | FAM177B (family with sequence similarity 177 member B)
0.79 | 0.54 | 0.68 | PTGS1 (prostaglandin-endoperoxide synthase 1)
1.04 | 0.96 | 0.92 | NPIPA1 (nuclear pore complex interacting protein family member A1)
0.96 | 0.7 | 0.73 | CPLX3 (complexin 3)
1.14 | 0.87 | 0.76 | GSE1 (Gse1 coiled-coil protein)
0.89 | 0.76 | 0.85 | PABIR2 (PABIR family member 2)
1.05 | 0.92 | 0.88 | CNTN6 (contactin 6)
1.06 | 0.68 | 0.64 | JPH1 (junctophilin 1)
1.14 | 0.92 | 0.81 | LRRC34 (leucine rich repeat containing 34)
0.83 | 0.8 | 0.96 | DPY19L2 (dpy-19 like 2)
1.1 | 0.43 | 0.39 | WFDC3 (WAP four-disulfide core domain 3)
1.24 | 0.83 | 0.67 | CELA1 (chymotrypsin like elastase 1)
1.08 | 0.97 | 0.9 | GLOD4 (glyoxalase domain containing 4)
1.05 | 0.63 | 0.6 | CALHM6 (calcium homeostasis modulator family member 6)
1.04 | 0.78 | 0.75 | CBX7 (chromobox 7)
1.27 | 1.12 | 0.88 | SOX7 (SRY-box transcription factor 7)

Just “CDH1-null viability vs mock (fraction of mock)” (4 entries from above):
CELA1 (chymotrypsin like elastase 1)	0.83
GLOD4 (glyoxalase domain containing 4)	0.97
CALHM6 (calcium homeostasis modulator family member 6)	0.63
CBX7 (chromobox 7)	0.78

The results go on:
CDH1-null / parental viability ratio | CDH1-null viability vs mock (fraction of mock) | parental viability vs mock (fraction of mock) | Target gene
0.9 | 0.56 | 0.62 | TSPY3 (testis specific protein Y-linked 3)
0.69 | 0.66 | 0.96 | NT5DC1 (5'-nucleotidase domain containing 1)
1.26 | 0.83 | 0.66 | TRPV2
0.98 | 0.86 | 0.88 | FGF8 (fibroblast growth factor 8)
0.91 | 0.42 | 0.46 | BMP3 (bone morphogenetic protein 3)
0.85 | 0.8 | 0.94 | CT55 (cancer/testis antigen 55)
0.84 | 0.94 | 1.12 | C21orf91 (chromosome 21 open reading frame 91)
0.99 | 0.87 | 0.88 | ANO4 (anoctamin 4)
0.9 | 0.94 | 1.04 | LIN7C (lin-7 cell polarity scaffold C)
1.19 | 0.76 | 0.64 | AP1G2 (adaptor related protein complex 1 subunit gamma 2)
1.05 | 0.61 | 0.58 | KCNK2 (potassium two pore domain channel subfamily K member 2)
1.09 | 1.02 | 0.94 | HNRNPR (heterogeneous nuclear ribonucleoprotein R)
1.18 | 1.04 | 0.88 | CCDC61 (coiled-coil domain containing 61)
1.04 | 0.94 | 0.9 | NRIP1 (nuclear receptor interacting protein 1)
1.24 | 0.99 | 0.8 | PABPC3 (poly(A) binding protein cytoplasmic 3)
0.72 | 0.62 | 0.86 | STX19 (syntaxin 19)
0.73 | 0.44 | 0.6 | SRCIN1 (SRC kinase signaling inhibitor 1)
1.1 | 0.92 | 0.84 | B4GALT5 (beta-1,4-galactosyltransferase 5)
0.96 | 1.1 | 1.14 | NLRP2 (NLR family pyrin domain containing 2)
1.02 | 0.98 | 0.96 | CALCOCO2 (calcium binding and coiled-coil domain 2)
0.98 | 1.11 | 1.13 | BCL2L13 (BCL2 like 13)
0.81 | 0.57 | 0.7 | RNF10 (ring finger protein 10)
0.86 | 0.63 | 0.73 | PLB1 (phospholipase B1)
0.99 | 0.94 | 0.95 | SLC2A12
0.92 | 0.74 | 0.8 | OR4C12 (olfactory receptor family 4 subfamily C member 12)
1.03 | 0.72 | 0.7 | GRINA
1.5 | 0.78 | 0.52 | KCNA6 (potassium voltage-gated channel subfamily A member 6)
0.98 | 0.58 | 0.59 | TECPR1 (tectonin beta-propeller repeat containing 1)
0.88 | 0.79 | 0.9 | FRG2 (FSHD region gene 2)
1.01 | 1.01 | 1 | TMEM67 (transmembrane protein 67)
0.86 | 0.9 | 1.05 | GPR15 (G protein-coupled receptor 15)
1.06 | 0.83 | 0.78 | FTSJ3 (FtsJ RNA 2'-O-methyltransferase 3)
0.94 | 0.94 | 1 | MIR1-1HG (MIR1-1 host gene)
1.25 | 0.9 | 0.72 | CCNL2 (cyclin L2)
0.99 | 0.76 | 0.77 | KLHL40 (kelch like family member 40)
